Test results: publication PMC5750225

Chains of the proteins cited; added tags and fusions are not shown.
UniProt P11940, whole entry: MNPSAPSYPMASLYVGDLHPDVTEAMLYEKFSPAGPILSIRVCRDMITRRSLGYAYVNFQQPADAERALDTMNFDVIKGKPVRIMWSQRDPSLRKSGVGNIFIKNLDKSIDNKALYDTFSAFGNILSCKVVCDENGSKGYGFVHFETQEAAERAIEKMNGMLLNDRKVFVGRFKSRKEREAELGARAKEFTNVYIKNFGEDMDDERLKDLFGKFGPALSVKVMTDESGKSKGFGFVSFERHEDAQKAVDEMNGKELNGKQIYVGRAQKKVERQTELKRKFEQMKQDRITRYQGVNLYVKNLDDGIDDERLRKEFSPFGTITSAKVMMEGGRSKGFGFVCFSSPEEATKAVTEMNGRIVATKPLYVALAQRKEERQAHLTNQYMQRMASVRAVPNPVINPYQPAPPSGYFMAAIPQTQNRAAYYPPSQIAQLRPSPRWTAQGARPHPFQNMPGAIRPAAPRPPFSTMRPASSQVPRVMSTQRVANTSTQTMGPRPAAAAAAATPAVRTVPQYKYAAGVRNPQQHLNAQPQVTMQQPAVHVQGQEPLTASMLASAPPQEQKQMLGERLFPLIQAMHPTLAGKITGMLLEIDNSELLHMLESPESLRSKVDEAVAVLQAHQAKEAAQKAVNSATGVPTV

Tests used:
[1] = target: PABP (endogenous, U2OS cytoplasmic/whole-cell lysate) (UniProt P11940); experiment: biotin pull-down with PABP immunoblot; details: diminished in PABP-depleted lysate, 2'-O-methyl throughout, phosphorothioate at the 5' and 3' terminal linkages, Pull-down: lysate in 50 mM Tris pH 8, 1 mM EDTA, 2 mM MgCl2, 150 mM NaCl, 0.5% NP40, on ice then 4 °C, protein in an extract, label: 3' biotin, synthetic backbone
[2] = target: PABP (endogenous, U2OS cytoplasmic/whole-cell lysate) (UniProt P11940); experiment: EMSA; details: 2'-O-methyl throughout, EMSA: 10 mM HEPES pH 7.4, 50 mM NaCl, 1 mM EDTA, 0.1 mg/mL BSA, 0.01% Tween-20, 0.1 mg/mL yeast tRNA, on ice, protein in an extract, synthetic backbone

AAAAAAAAAAAA [Poly(A) SPOT-ON, 3' biotin]
binding result [1]: binds

AAAAAAAAAAAA [Poly(A) SPOT-ON]
binding result ([2]; band greatly reduced (53%) on PAIP depletion of PABP, phosphorothioate at the 5' and 3' terminal linkages (A*AAAAAAAAAA*A)): binds

UAACAAAAUAAU [scramble SPOT-ON]
binding result ([2]; no clear binding to any species, phosphorothioate at the 5' and 3' terminal linkages (U*AACAAAAUAA*U)): no binding

Construct, isoform or probe ends are uncertain for at least one entry. Results from cells or extracts need not show a direct contact. For part of these data: A negative result means that nothing was seen under these conditions.
